Measurements: patent publication US8329919B2, “Salt hydrates” (Novartis AG, priority 2002, dated 2012)
At least one compound was matched to its structure with a doubt left.

Test: Thermogravimetry: weight loss, i.e. water loss, as a function of temperature (thermobalance TGS-2)
Type: physicochemical
Settings: heating rate 10 K·min^−1, water-free N2 atmosphere
Procedure: Using thermogravimetry, in a water-free N2 atmosphere, the weight loss, i.e. the water loss for the tetrahydrate of the calcium salt of valsartan A1,Ca as a function of temperature, was measured at a heating rate of 10 K·min^−1. […]
Using thermogravimetry, in a water-free N2 atmosphere, the weight loss, i.e. the water loss for the trihydrate of the calcium salt of valsartan in the polymorphic form B1,Ca as a function of temperature, was measured at a heating rate of 10 K·min^−1.
(§1) Using thermogravimetry, in a water-free N2 atmosphere, the weight loss, i.e. the water loss for the trihydrate B2,Ca as a function of temperature, was measured at a heating rate of 10 K·min^−1. The results for the polymorph B2,Ca of the trihydrate of the calcium salt of valsartan are illustrated in table 4.
as §1, with “B3,Ca” for “B2,Ca”, “polymorphic form B3,Ca” for “polymorph B2,Ca”, “5.” for “4.”
Using thermogravimetry, in a water-free N2 atmosphere, the weight loss, i.e. the water loss for the di-(calcium salt of valsartan) pentahydrate D1,Ca as a function of temperature, was measured at a heating rate of 10 K·min^−1.
The instrument used for the calorimetric data is throughout a DSC Pyris 1 (Differential Scanning calorimeter) obtained from Perkin-Elmer Corp., Norwalk, Conn. USA. The measurements are performed with samples enclosed in a sealed gold specimen container with an internal free volume of ca. 22 microliters, with a sample weight of 2 to 4 mg and with a heating rate of Tr=10K·min^−1. […] The instrument used was a TGS-2 (Perkin-Elmer Corp., Norwalk, Conn. USA) and the measurement was performed in a water free atmosphere. The heating rate selected was 10 K·min^−1. The weight loss is illustrated in table 7.
The heating rate selected was 10K·min^−1.
Using thermogravimetry, in a water-free N2 atmosphere, the weight loss, i.e. the water loss for the tetrahydrate as a function of temperature, was measured at a heating rate of 10 K·min^−1. The results for the calcium salt of valsartan tetrahydrate A0,Ca are listed in the following: […]
Using thermogravimetry, in a water-free N2 atmosphere, the weight loss, i.e. the water loss for the tetrahydrate of the calcium salt of valsartan as a function of temperature, was measured at a heating rate of 10 K·min^−1.

**Q.** For `CCCCC(=O)N(Cc1ccc(-c2ccccc2-c2nnn[nH]2)cc1)[C@H](C(=O)O)C(C)C` [Example 11, (S)—N-(1-carboxy-2-methyl-prop-1-yl)-N-pentanoyl-N-[2′-(1H-tetrazol-5-yl)-biphenyl-4-ylmethyl]-amine], which “weight loss or water loss in %” value (temperature 25 °C) is on record?
**A.** The value was 0%.

**Q.** And the “weight loss or water loss in %” value (temperature 50 °C)?
**A.** Its value is 2.1%.

**Q.** And the “weight loss or water loss in %” value (temperature 75 °C)?
**A.** Its value is 6.3%.

**Q.** What about the “weight loss or water loss in %” value (temperature 100 °C) of the same compound?
**A.** The value was 9.4%.

**Q.** And the “weight loss or water loss in %” value (temperature 125 °C)?
**A.** Its value is 11.1%.

**Q.** What about the “weight loss or water loss in %” value (temperature 150 °C) of the same compound?
**A.** Its value is 12.0%.

**Q.** And the “weight loss or water loss in %” value (temperature 175 °C)?
**A.** The value was 12.3%.

**Q.** And the “weight loss or water loss in %” value (temperature 200 °C)?
**A.** The value was 12.6%.

**Q.** What about the “weight loss or water loss in %” value (temperature 250 °C) of the same compound?
**A.** The value was 13.5%.

**Q.** And the “weight loss or water loss in %” value (temperature 275 °C)?
**A.** Its value is 14.2%.
